Measured values from PubChem BioAssay AID448 (National Center for Advancing Translational Sciences (NCATS), 2006).
Shown are results outside the selection of hits, which stands elsewhere. Active and inactive are the calls of the source. Calls follow the shape of the full dose curve.

system: Schistosoma mansoni peroxiredoxin 2 (Prx2); experiment: Schistosoma Mansoni Peroxiredoxins (Prx2); settings: S. mansoni Prx2 activity coupled to TGR/GSH (TGR is thioredoxin glutathione reductase), NADPH fluorescence loss, qHTS
Excerpt: NIH Molecular Libraries Screening Centers Network [MLSCN]
NIH Chemical Genomics Center [NCGC]
David Williams [Illinois State University]
Schistosoma mansoni, a causative agent of schistosomiasis, resides in the bloodstream of their host up to 30 years without being eliminated by the host immune attack. One proposed survival mechanism is the production of an antioxidant "firewall" that neutralizes the oxidative assault of the host's immune attack. Schistosoma mansoni peroxiredoxins (Prx) are important parasite antioxidant proteins that play a crucial role in redox balance mechanisms. […] First, the proteins are essential for the parasite survival. […] Third, the protein(s) is amenable for study at the molecular level and can be produced in bacteria in large quantities, in soluble and active form. Inhibition of Prx activity was screened in a coupled-enzyme format with reducing equivalents being transferred from NADPH to […] intermediate via thioredoxin/glutathione reductase (TGR)-catalyzed reaction, then from thioredoxin to hydrogen peroxide via Prx-catalyzed electron transfer. A decrease in the fluorescence intensity of NADPH was used to measure the enzyme activity. Purified S. mansoni TGR and Prx were provided by Professor David L. Williams, Illinois State University.
NCGC Assay Protocol Summary:
100 mM phosphate buffer, pH 7.4, 10 mM EDTA, 0.01% Tween-20.
100 uM NADPH/25 nM TGR/700 uM GSH/50 nM Prx2 mixture in columns 1, 2, 5-48. Titration of control potassium antimonyl tartrate (PAT, from 1 mM, then 1:5) pin-transferred to lower half of column 2. Column 1 and upper half of column 2 are neutral (100% activity).
Three uL of reagents were dispensed to 1536-well Greiner black plates. Compounds and controls (20 nL) were transferred via Kalypsys PinTool. The plates were incubated for 15 min at room temperature, and then a 1 uL aliquot of 400 uM NADPH/700 uM GSH was added, immediately followed by a 1uL aliquot of 2.5 mM H2O2 (to start the reaction). The plate was transferred to ViewLux (Perkin-Elmer) High-throughput CCD imager where kinetic measurements (every 30 sec, for a total of 8 min) of NADPH fluorescence were taken using 365 nm excitation/450 nm emission filter set. During dispense, enzyme-containing reagent bottles were kept submerged into 4 deg C water bath to minimize degradation.
Keywords: NIH Roadmap, MLSCN, MLI, MLSMR, David Williams, Peroxyredoxin, Schistosoma mansoni, prx2, prx, , qHTS, NCGC
Potency is read from the fitted curve at half-maximal effect.

Question: With `Cc1c(C(=O)NN2CCCCC2)nn(-c2ccc(Cl)cc2Cl)c1-c1ccc(I)cc1` as the compound, how does the Potency read?
Answer: inactive: > 57 µM

Question: Which Potency does the source give for `CCCCNc1c(CN)cnc2cc(Cl)ccc12` here?
Answer: inactive: > 57 µM

Question: How did the Potency turn out when `Cc1cccc(CCN2CCC(C(=O)c3ccc(NS(C)(=O)=O)cc3)CC2)n1` was run?
Answer: inactive: > 57 µM

Question: `COc1ccc2c(c1)c1c(C)c3cnccc3c(C)c1n2CCCN` was tested. Which Potency did it give?
Answer: inactive: > 57 µM

Question: How did the Potency turn out when `NCCN1C(=O)c2ccccc2[C@@]1(O)c1ccc(Cl)cc1` was run?
Answer: inactive: > 57 µM
